PubChem BioAssay AID1053208 | Peter MacCallum Cancer Centre | 2014
Here is an unselected part of about 17,000 reagents tested. 788 of all reagents (4.7%) were called active. 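Calls rest on z-score classes alone; an extra cut-off of viability at most 70% of control was not applied to them.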 Not all columns of the deposit are shown.

- Aim: 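Genes whose silencing cuts survival of bone tumour cells only with doxorubicin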 (primary screen)
- System: mouse osteosarcoma cells, early-passage culture from an engineered mouse model of fibroblastic bone tumour
- Reagent: siRNA pool against mouse genes, 40 nM
- Time to read-out: about 120 h (48 h before drug, then 72 h with drug)
- Conditions: doxorubicin 100 nM for 72 h, roughly 30-40% inhibitory dose
- Detection: 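Luminescent ATP signal taken as viability with or without 100 nM doxorubicin for 72 h; mean of two wells set against non-targeting siRNA and turned into robust z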
- Reading the numbers: viability z-score with doxorubicin: higher = more viable cells under doxorubicin; viability z-score without drug: higher = more viable cells with knock-down alone
- Rule for the call: 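a pool counts as active when its viability z-score with doxorubicin is -2 or below and its z-score without drug lies between -2 and 2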

gene knocked down	combined z-score class	viability z-score with doxorubicin	viability z-score without drug	activity call
Lpcat2	no change with or without drug	-0.67	-0.67	inactive
Tmcc1	no change with or without drug	0	1.18	inactive
Trpm2	no change with or without drug	-1.01	1.18	inactive
Pfn1	no change with or without drug	0.56	1.69	inactive
Dtna	high cell count with doxorubicin only	2.02	-0.17	inactive
Tfpi	no change with or without drug	-0.45	-0.51	inactive
Kif3a	no change with or without drug	0.56	0.84	inactive
Fbxw4	no change with or without drug	1.12	0.51	inactive
Dhx37	no change with or without drug	-0.22	0.34	inactive
Popdc3	no change with or without drug	-0.45	0.34	inactive
Mrps26	no change with or without drug	-0.45	0.51	inactive
Skp1	no change with or without drug	0.34	-0.84	inactive
Cfap126	low cell count with doxorubicin only	-2.02	-1.18	active
Pamr1	no change with or without drug	-1.01	0.17	inactive
Gtse1	no change with or without drug	0.22	0.17	inactive
Srd5a1	no change with or without drug	-0.9	0	inactive
Amn	no change with or without drug	-1.01	-0.17	inactive
Krtap13-21	low cell count with and without drug	-3.04	-2.53	inactive
Cnnm1	no change with or without drug	-0.45	-0.17	inactive
Or5al7	no change with or without drug	-0.11	-0.51	inactive
Zfp790	no change with or without drug	0.45	0.17	inactive
Gorasp1	no change with or without drug	-0.9	-1.52	inactive
Endou	no change with or without drug	1.35	0.17	inactive
Gabrq	no change with or without drug	1.35	0.67	inactive
E230015B07Rik	no change with or without drug	1.01	1.18	inactive
BC004004	no change with or without drug	0.11	0.51	inactive
Cenpe	high cell count with doxorubicin only	2.81	0.51	inactive
Tpi1	no change with or without drug	0.45	0.51	inactive
Triap1	no change with or without drug	-1.35	0.67	inactive
Msc	no change with or without drug	0.45	-0.67	inactive
Nppb	no change with or without drug	-1.57	-0.51	inactive
Chordc1	no change with or without drug	-0.67	1.52	inactive
H2-Q1	no change with or without drug	1.24	0.51	inactive
Vdac3	no change with or without drug	-1.12	-1.52	inactive

Ordered by “viability z-score with doxorubicin” (high to low): some entries from above
gene knocked down	combined z-score class	viability z-score with doxorubicin	viability z-score without drug	activity call
Dtna	high cell count with doxorubicin only	2.02	-0.17	inactive
Pfn1	no change with or without drug	0.56	1.69	inactive
Kif3a	no change with or without drug	0.56	0.84	inactive
Tmcc1	no change with or without drug	0	1.18	inactive
Tfpi	no change with or without drug	-0.45	-0.51	inactive
Lpcat2	no change with or without drug	-0.67	-0.67	inactive
Trpm2	no change with or without drug	-1.01	1.18	inactive

Further results follow:
gene knocked down	combined z-score class	viability z-score with doxorubicin	viability z-score without drug	activity call
Tceal8	no change with or without drug	0.67	0.34	inactive
C1s1	no change with or without drug	1.01	0.84	inactive
Grb10	no change with or without drug	0.67	-0.51	inactive
Tmprss15	no change with or without drug	1.24	-0.51	inactive
Or8g24	no change with or without drug	-1.46	-1.35	inactive
Zfp119b	no change with or without drug	-0.11	-0.84	inactive
Mia3	no change with or without drug	0	-0.34	inactive
Atm	no change with or without drug	1.01	-1.35	inactive
Stmn3	no change with or without drug	-0.9	-1.52	inactive
Tinf2	no change with or without drug	0.22	0.17	inactive
Cdh16	no change with or without drug	0.22	-0.51	inactive
Rev3l	no change with or without drug	-0.45	-0.51	inactive
H2-T10	no change with or without drug	-0.9	0.17	inactive
Gcsh	no change with or without drug	-0.11	-0.34	inactive
Tcam1	no change with or without drug	1.57	0.34	inactive
BC002059	no change with or without drug	0.67	-0.34	inactive
Mphosph9	no change with or without drug	0	1.18	inactive
Or52h2	no change with or without drug	-0.45	0.51	inactive
Tmem68	no change with or without drug	-0.67	1.18	inactive
Eif4b	high cell count without drug only	-0.79	2.36	inactive
Zfp397	low cell count without drug only	-0.22	-3.54	inactive
Rab37	no change with or without drug	0	0.17	inactive
Yipf1	no change with or without drug	1.12	0	inactive
Mrpl10	no change with or without drug	0.67	-1.01	inactive
Il3ra	low cell count without drug only	-1.57	-2.19	inactive
Id1	no change with or without drug	-1.12	-0.51	inactive
A130014H13Rik	no change with or without drug	0.22	0.17	inactive
Ggact	high cell count with doxorubicin only	2.02	0.17	inactive
Chchd5	no change with or without drug	0	-0.17	inactive
